Measured values from publication PMC10320902.
These are yes or no findings as the source states them, for the method shown. Binding seen in cells or lysates may run through a third protein. Some results given as binding are weak or reduced against the parent protein; the word gives no strength.

Sequences of proteins named here, by UniProt entry; tags and fusion partners are left off.
UniProt Q9HCE7: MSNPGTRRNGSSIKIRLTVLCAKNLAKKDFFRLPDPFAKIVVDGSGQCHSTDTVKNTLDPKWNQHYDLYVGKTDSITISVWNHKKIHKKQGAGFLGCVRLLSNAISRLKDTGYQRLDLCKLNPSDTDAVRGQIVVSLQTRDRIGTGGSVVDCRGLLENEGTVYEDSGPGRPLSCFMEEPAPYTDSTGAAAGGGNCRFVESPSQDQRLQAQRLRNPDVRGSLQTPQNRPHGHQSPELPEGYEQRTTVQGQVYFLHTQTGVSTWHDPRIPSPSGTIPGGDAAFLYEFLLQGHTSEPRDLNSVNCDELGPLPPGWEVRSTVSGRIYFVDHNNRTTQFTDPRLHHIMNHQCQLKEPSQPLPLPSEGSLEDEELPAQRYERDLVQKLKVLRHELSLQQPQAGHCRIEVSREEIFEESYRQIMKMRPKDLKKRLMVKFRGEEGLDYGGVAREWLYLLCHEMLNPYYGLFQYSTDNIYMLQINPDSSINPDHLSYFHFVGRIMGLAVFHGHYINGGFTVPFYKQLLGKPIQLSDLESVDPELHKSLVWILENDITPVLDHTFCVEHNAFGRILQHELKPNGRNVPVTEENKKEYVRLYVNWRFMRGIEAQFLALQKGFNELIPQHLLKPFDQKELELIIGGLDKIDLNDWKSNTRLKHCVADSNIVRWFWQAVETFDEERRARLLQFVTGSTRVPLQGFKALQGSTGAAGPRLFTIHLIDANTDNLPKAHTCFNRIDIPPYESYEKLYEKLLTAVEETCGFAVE
UniProt Q15208: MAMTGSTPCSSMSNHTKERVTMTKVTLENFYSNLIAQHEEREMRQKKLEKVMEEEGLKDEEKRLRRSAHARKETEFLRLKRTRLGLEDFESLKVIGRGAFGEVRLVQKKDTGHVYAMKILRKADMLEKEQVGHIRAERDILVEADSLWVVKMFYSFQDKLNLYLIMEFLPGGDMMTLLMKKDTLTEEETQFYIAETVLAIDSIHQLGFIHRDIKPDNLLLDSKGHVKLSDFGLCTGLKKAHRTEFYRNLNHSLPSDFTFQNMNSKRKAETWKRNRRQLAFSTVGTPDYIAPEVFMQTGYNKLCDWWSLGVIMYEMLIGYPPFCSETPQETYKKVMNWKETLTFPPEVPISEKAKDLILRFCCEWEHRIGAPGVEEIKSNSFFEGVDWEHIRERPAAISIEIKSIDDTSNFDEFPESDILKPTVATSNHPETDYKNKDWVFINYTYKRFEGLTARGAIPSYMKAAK

Experiments:
[1] = target: T1, MEKK2 (printed as mitogen-activated protein kinase kinase 2) (human (endogenous in MDA-MB-231 and MDA-MB-468)) (UniProt Q9Y2U5); assay: co-IP; MDA-MB-231 and MDA-MB-468 cell lysates IP with anti-MEKK2 antibody, detection with anti-MEKK2, STK38 and SMURF1 antibodies
T1 sequence: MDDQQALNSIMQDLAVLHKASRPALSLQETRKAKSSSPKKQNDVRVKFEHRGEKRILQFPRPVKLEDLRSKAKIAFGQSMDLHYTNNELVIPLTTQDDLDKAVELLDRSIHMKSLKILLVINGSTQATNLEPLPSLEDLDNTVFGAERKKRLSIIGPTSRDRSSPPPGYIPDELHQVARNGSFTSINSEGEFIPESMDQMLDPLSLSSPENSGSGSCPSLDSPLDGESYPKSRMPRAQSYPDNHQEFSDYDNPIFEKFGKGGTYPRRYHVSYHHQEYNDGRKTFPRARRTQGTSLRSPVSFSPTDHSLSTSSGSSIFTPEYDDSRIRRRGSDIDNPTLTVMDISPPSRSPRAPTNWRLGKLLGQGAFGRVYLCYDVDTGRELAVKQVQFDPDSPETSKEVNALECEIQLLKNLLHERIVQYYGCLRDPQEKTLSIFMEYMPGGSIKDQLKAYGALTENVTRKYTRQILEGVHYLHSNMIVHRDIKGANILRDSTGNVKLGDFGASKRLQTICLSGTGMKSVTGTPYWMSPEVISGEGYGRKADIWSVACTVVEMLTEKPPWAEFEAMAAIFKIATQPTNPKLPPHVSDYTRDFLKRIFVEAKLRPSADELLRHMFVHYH

[2] = target: SMAD-specific E3 ubiquitin protein ligase 1 (SMURF1) (human (endogenous in MDA-MB-231 and MDA-MB-468)) (UniProt Q9HCE7); assay: co-IP; MDA-MB-231 and MDA-MB-468 transfected with CAPG-171aa-FLAG; whole-cell lysates IP with anti-SMURF1 and IgG antibodies, detection with anti-FLAG, STK38, SMURF1 and GAPDH antibodies

| Substance | binding [1] | binding [2] |
| --- | --- | --- |
| serine/threonine kinase 38 (STK38), in TNBC cells (from UniProt Q15208 1-465) | binds | binds |
| SMAD-specific E3 ubiquitin protein ligase 1 (SMURF1) (from UniProt Q9HCE7 1-757) | binds |  |
